Some of the results follow.

Amino acid sequences for entries named in this document (tags omitted). A change or cut given only in a name is not applied to a line headed by its entry.
UniProt Q92900: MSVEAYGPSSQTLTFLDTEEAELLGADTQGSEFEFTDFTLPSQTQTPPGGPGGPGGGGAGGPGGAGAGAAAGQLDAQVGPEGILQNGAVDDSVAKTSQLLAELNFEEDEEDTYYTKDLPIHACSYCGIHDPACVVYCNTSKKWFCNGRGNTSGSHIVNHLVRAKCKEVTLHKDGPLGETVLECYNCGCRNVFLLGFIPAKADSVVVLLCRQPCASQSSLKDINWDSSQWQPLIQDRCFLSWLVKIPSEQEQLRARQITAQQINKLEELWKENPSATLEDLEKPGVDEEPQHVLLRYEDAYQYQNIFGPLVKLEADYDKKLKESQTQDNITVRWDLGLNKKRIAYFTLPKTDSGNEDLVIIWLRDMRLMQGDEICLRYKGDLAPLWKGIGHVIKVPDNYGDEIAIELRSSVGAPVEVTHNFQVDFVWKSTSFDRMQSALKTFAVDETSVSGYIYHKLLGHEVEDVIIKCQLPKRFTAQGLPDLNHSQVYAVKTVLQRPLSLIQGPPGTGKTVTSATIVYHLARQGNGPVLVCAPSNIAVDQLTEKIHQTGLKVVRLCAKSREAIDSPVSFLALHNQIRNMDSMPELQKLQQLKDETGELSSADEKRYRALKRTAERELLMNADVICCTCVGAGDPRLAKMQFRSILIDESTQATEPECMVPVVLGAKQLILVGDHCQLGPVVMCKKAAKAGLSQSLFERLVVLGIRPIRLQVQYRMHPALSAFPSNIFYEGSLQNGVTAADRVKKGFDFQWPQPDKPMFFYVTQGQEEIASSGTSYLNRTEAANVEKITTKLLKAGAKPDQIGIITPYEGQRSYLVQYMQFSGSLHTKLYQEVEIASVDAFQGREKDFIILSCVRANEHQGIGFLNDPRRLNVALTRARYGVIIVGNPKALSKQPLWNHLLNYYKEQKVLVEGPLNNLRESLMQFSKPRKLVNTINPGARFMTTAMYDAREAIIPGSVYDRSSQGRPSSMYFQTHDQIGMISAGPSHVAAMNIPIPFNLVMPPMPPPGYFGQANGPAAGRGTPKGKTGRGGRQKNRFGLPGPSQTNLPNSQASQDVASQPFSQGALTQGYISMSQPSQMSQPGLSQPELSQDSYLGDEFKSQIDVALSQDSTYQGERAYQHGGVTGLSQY
UniProt O60763: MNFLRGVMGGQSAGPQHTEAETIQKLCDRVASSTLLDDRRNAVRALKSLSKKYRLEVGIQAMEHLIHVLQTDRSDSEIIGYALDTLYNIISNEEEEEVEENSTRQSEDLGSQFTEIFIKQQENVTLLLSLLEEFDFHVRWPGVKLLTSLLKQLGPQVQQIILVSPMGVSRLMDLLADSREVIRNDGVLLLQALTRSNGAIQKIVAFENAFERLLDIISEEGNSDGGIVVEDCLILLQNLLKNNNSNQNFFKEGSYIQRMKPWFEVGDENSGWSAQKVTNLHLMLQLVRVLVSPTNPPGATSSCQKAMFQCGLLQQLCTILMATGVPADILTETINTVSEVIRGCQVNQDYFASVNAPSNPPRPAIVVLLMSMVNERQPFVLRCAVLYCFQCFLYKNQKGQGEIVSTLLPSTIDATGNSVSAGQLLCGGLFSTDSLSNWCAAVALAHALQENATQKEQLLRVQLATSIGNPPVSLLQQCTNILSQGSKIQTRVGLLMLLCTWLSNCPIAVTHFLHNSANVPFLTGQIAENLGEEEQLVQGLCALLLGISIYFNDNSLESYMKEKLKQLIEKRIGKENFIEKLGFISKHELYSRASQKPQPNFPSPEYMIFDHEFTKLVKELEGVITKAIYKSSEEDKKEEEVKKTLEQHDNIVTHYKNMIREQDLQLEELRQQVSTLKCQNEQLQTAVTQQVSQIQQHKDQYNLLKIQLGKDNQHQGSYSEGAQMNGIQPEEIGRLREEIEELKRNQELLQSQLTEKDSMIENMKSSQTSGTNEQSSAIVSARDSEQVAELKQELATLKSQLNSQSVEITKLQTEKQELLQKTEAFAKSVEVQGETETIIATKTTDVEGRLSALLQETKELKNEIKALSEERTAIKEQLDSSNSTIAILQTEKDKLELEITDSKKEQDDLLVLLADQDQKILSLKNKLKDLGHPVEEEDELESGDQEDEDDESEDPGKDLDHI
UniProt Q96K76: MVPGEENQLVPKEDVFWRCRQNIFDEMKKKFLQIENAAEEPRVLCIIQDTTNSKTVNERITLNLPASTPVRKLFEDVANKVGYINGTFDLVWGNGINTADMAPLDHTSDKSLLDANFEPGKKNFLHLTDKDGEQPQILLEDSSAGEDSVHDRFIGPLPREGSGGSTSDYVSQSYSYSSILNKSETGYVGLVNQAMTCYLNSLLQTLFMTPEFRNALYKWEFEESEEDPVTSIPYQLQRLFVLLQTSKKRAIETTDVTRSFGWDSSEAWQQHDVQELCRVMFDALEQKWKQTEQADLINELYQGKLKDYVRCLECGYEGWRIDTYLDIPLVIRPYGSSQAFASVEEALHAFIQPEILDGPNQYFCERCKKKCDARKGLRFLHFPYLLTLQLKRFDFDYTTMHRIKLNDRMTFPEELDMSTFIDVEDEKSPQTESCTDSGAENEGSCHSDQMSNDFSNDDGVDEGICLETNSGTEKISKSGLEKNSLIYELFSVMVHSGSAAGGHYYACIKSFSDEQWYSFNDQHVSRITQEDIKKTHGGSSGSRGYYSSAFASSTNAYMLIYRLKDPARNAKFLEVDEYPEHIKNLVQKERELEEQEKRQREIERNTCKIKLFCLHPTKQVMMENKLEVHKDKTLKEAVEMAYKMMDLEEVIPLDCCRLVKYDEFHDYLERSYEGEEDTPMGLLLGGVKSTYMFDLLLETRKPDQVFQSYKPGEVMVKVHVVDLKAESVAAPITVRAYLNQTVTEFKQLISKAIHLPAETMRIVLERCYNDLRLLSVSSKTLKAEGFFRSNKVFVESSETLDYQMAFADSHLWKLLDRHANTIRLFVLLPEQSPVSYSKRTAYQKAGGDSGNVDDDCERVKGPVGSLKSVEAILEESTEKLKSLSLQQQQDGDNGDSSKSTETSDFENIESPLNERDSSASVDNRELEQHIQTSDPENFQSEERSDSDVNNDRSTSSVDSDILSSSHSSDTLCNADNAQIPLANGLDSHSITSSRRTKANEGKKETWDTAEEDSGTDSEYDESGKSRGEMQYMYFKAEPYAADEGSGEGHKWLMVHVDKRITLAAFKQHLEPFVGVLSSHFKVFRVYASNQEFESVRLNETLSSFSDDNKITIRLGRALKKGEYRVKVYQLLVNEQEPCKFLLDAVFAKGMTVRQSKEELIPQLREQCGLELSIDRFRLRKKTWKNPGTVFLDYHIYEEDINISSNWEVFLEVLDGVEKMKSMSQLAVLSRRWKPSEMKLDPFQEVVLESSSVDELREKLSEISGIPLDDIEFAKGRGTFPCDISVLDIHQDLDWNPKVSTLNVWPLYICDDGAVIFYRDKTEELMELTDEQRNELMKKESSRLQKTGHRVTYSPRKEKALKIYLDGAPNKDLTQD
UniProt Q15836, whole entry, looked up: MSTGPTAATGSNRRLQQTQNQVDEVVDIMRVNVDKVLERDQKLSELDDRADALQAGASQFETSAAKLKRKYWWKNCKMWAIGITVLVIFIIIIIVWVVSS
UniProt P51809, whole entry, looked up: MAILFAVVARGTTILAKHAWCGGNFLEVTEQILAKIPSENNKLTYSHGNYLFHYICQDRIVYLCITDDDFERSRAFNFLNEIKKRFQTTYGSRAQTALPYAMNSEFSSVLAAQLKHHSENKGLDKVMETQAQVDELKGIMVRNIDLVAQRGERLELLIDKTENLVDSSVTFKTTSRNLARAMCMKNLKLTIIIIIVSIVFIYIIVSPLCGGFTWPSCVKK
UniProt Q14694, whole entry, looked up: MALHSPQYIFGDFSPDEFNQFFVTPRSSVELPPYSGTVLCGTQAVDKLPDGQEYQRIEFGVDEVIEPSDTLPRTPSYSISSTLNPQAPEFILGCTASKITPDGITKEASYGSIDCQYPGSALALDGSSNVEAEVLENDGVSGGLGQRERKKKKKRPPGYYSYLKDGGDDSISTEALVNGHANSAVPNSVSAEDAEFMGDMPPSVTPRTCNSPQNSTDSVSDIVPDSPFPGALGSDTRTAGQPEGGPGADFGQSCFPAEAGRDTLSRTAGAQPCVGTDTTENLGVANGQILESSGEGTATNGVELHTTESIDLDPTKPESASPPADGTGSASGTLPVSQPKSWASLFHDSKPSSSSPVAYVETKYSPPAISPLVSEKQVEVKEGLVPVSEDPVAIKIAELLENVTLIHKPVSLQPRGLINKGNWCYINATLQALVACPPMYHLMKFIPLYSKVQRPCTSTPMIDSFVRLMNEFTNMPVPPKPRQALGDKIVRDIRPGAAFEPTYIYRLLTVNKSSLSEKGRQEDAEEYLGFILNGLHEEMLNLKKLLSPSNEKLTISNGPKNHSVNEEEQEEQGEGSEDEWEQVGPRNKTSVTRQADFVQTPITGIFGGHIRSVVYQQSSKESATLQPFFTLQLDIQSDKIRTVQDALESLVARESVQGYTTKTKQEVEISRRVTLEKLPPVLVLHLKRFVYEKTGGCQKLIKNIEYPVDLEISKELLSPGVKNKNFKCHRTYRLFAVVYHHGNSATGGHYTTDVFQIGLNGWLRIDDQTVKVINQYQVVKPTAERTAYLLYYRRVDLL
UniProt A6NIH7: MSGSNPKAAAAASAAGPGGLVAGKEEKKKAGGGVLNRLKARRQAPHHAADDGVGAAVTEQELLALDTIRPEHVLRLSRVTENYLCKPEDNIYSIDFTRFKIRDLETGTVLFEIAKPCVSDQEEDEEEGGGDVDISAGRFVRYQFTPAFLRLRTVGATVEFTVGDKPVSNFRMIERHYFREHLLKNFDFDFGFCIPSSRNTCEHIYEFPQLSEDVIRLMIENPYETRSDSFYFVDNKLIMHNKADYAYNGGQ
UniProt Q9NQZ2: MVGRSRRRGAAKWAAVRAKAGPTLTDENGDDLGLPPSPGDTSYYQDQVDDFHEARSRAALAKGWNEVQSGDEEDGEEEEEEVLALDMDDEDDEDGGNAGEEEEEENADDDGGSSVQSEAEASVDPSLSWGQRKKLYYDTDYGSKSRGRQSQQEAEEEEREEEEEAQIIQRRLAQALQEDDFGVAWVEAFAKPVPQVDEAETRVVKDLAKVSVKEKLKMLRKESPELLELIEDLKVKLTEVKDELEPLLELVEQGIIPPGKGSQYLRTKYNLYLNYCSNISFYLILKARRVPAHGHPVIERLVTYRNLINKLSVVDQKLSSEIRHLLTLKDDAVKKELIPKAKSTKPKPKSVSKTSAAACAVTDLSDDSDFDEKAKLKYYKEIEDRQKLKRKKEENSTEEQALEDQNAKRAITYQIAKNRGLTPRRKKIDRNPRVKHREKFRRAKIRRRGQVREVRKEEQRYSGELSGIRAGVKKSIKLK
UniProt Q9HAU5: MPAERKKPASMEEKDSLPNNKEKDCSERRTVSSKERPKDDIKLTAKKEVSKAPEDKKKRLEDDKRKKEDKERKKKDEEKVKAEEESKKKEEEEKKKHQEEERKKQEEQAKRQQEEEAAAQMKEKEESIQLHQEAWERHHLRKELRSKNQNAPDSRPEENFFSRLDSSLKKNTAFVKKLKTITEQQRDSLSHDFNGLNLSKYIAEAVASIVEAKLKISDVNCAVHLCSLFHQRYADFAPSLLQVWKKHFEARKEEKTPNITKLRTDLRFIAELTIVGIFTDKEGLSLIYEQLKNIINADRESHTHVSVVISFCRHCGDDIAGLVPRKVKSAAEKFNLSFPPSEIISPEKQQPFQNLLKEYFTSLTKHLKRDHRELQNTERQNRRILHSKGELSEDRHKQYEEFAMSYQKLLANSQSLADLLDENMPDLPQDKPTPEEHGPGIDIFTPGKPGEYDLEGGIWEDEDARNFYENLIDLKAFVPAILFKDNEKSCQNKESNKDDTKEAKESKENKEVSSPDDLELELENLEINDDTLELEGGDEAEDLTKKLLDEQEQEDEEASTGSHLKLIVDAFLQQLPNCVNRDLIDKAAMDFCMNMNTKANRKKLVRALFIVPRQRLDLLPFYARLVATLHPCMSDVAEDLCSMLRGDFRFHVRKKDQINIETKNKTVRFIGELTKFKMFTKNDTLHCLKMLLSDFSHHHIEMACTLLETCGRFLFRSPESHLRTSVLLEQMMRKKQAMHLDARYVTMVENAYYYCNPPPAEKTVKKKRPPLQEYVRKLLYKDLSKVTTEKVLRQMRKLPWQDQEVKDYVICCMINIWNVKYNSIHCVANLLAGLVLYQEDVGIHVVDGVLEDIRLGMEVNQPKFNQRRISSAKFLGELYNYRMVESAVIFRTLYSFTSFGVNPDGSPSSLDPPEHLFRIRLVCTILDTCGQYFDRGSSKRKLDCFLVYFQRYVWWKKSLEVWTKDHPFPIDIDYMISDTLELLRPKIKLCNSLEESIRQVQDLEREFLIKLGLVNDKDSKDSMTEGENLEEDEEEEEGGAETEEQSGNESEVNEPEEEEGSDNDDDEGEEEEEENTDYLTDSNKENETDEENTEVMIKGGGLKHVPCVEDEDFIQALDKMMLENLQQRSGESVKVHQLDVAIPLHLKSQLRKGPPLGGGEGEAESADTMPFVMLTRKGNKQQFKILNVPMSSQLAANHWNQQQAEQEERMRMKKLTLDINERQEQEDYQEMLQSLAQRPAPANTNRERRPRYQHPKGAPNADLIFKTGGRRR

Compound in this test: c1ccc([C@@H]2C[C@H]2NC2CCNCC2)cc1
The test can be described thus: log2 fold change, soluble protein after heating vs DMSO (PISA); higher = thermal stabilisation; K562 lysate, 10 uM; active = over 0.2 and 3.5 SD of the protein, either way, in both replicates (recomputed). In short, it runs like this:
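K562 pellets were dounce-homogenised in PBS pH 7.4 containing 1 mM MgCl2, and the crude extract, at 1 mg/mL protein, was exposed to 10 μM compound for 30 min. Aliquots were heated for 3 min across 48°C-58°C, pooled, brought to 0.5% NP-40 at 4°C and spun at 21,000xg for 90 min, with the supernatant taken as soluble protein. TMTpro 16plex LC-MS/MS with equalised channel sums quantified that protein. Values are log-two fold changes in thermal stability relative to solvent controls, taken from duplicates.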
For the target USE1 (UniProt Q9NZ43), the log2 fold change is inactive: -0.002. For UPF1 (UniProt Q92900), the log2 fold change was inactive: -0.01. With USO1 isoform 2 (UniProt O60763), the log2 fold change was inactive: 0.009.

With USP47 isoform 4 (UniProt Q96K76), the log2 fold change was inactive: 0.029.

On to URM1 isoform 2 (UniProt Q9BTM9), for which the log2 fold change is inactive: 0.094. To USO1 (UniProt O60763) belongs inactive: -0.159; to VAMP3 (UniProt Q15836), inactive: -0.027. The same measure for UQCR11 (UniProt O14957): inactive: -0.029. Turning to VAMP7 (UniProt P51809), the log2 fold change is inactive: -0.004. To UMPS (UniProt P11172) belongs inactive: 0.04; to USP19 isoform 6 (UniProt O94966), inactive: 0.029. To USP7 (UniProt Q93009) belongs inactive: -0.009. Consider USP10 isoform 2 (UniProt Q14694), for which the log2 fold change was inactive: 0.023. On to VIM (UniProt P08670), for which the log2 fold change is inactive: 0.073. Regarding UGDH (UniProt O60701), the log2 fold change is inactive: 0.026. To UNC119B (UniProt A6NIH7) belongs inactive: -0.058. To VEZF1 (UniProt Q14119) belongs inactive: -0.027; to UIMC1 (UniProt Q96RL1), inactive: -0.068; to UQCRC1 (UniProt P31930), inactive: -0.035. The same measure for VIL1 (UniProt P09327): inactive: -0.143; for UTP3 (UniProt Q9NQZ2): inactive: 0.018. As to UPF2 (UniProt Q9HAU5), the log2 fold change was inactive: 0.024. The same measure for VDAC3 (UniProt Q9Y277): inactive: -0.041.

The values are drawn from the supplement of paper PMC10849652.
